± gives the half width of the 95% confidence interval. For many entries, trypsin and chymotrypsin gave values far apart.

Data set [1] can be described thus: folding stability dG unfold from trypsin proteolysis; higher = more stable. In short, it runs like this: (§1)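 K50 was inferred by Bayesian fitting of sequencing counts obtained after protease digestion of designed mini-proteins. Unfolding free energy was derived by comparison with a sequence-predicted unfolded-state K50 and a shared folded-state K50, for each protease or both combined. The mini-proteins were under 80 residues, had no cysteine, were carried in a PA-tagged cDNA display construct, and were kept only if AlphaFold2 dimer inter-PAE exceeded 15.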

The nature of data set [2]: folding stability dG unfold from chymotrypsin proteolysis; higher = more stable. In a few lines: as §1
Data set [3] can be described thus: folding stability dG unfold (combined trypsin and chymotrypsin); higher = more stable. In a few lines: as §1

Take “SAGGSSYSVAQSPGPARLYSVPQPDGRVVEVDVEELPGGLLRVRVPDDPVPRLFPASLSLADIVSLSAGGSA [r2_338_JUSTAS]”: the results for the “folding stability dG unfold” value in data set [1], in data set [2] and in data set [3] were 2.7 ± 0.0837 kJ/mol, 3.91 ± 0.192 kJ/mol and 3.62 ± 0.134 kJ/mol, respectively.
For “SAGGSAGGSAGGPKNLRAPRLPPKPKRFPVARVRVPFIAPHPDSDELYPLELEFTFYLGLSAGGSAGGSAGG [r7_64_TrMRF]”, the “folding stability dG unfold” value in data set [1] was 1.95 ± 0.502 kJ/mol; in data set [2] it was 11.4 ± 0.213 kJ/mol; in data set [3] it was 8.02 ± 0.397 kJ/mol.
The like results for “SAGGSIELPLEEGSTAEVELELRVPFYRLDANGRPVAPEERTLRIRARFTRLPDGRVLVEVEVEVESAGGSA [r2_154_TrMRF]” were, in that order, 18.7 ± 0.711 kJ/mol, 21.9 ± 0.418 kJ/mol and 20.8 ± 0.544 kJ/mol.
Take “SSVPVVEVKKAKIPNTGKEYIFVKVVLGGDNPEEAEKIAKKILEEEFGLKLEEMKVEKLENSYVVYYKIVGS [r1_337_TrMRF]”: the “folding stability dG unfold” value in data set [1] is 6.53 ± 0.138 kJ/mol; in data set [2], 17.63 ± 0.134 kJ/mol; in data set [3], 15.1 ± 0.837 kJ/mol.
In the case of “SAGGMRLVFVTETPEEAEEIARELAELFPDFELEAEVREEEVLVEVPETGEVKRRPVYVLVIELRPKSAGGS [r16_828_TrMRF]”, the “folding stability dG unfold” value in data set [1] was 18 ± 0.41 kJ/mol; in data set [2], 18.5 ± 0.247 kJ/mol; in data set [3], 18.4 ± 0.331 kJ/mol.
The corresponding values for “SAGGSAGGSKLKIPIIRKFKPDEPLPTAEDVKAILEELGLDIKEVKVTYFPEYGYAIAEVEVSSAGGSAGGS [r12_1052_TrMRF]” are 6.58 ± 0.138 kJ/mol, 5.17 ± 0.163 kJ/mol and 5.92 ± 0.28 kJ/mol.
For the sequence “SPFIMIRIDIERKNGKEVEMMFPVPANNIKNNLRDHLGPGYKVKITDIEPIDPEQFPPGQMIKIRYRVKPSA [r9_803_TrROS]”, the “folding stability dG unfold” value is 7.26 ± 0.201 kJ/mol in data set [1], 7.15 ± 0.544 kJ/mol in data set [2] and 7.51 ± 0.753 kJ/mol in data set [3].
“SAGGMVTLTLPSPDGSTLTVTVEKDPNADYYRATVTTHHPDGTVTVTESVIHPDGTTTTLATTTLPASAGGS [r16_213_JUSTAS]”: the “folding stability dG unfold” value is 8.81 ± 0.335 kJ/mol in data set [1], 9.3 ± 0.167 kJ/mol in data set [2] and 9.35 ± 0.502 kJ/mol in data set [3].
The like results for “SAGGAEIKIEVEEKDGELVVKVTIKVPPGVTPEEIAAALKELFPEDVEVRIEKNEDGTLTVYVRFKPSAGGS [r8_255_TrROS_Hall]” were, in that order, 9.92 ± 0.343 kJ/mol, 18.8 ± 0.364 kJ/mol and 17.2 ± 0.393 kJ/mol.
Consider “SAGGSAGGSAGPKTIVLPTPGGDAEKIVEAALDVVEAFPGLKDKEVDVDAGDDGVITITASAGGSAGGSAGG [r17_324_TrMRF]”, for which the “folding stability dG unfold” value in data set [1] is -2.38 ± 1 kJ/mol; in data set [2], 6.9 ± 0.31 kJ/mol; in data set [3] it was 4.6 ± 0.502 kJ/mol.
For “SAGGSAGGMIVEKSVTLLEGNLAVETTTTVDPNNPDKVETEPSVTEIPTPVKVEPEPPVWGEPSSAGGSAGG [r6_230_JUSTAS]”, the “folding stability dG unfold” value in data set [1] is -5.28 ± 1.42 kJ/mol; in data set [2], 4.35 ± 0.197 kJ/mol; in data set [3], 2.53 ± 0.184 kJ/mol.
In the case of “SAGGSAGGKKKKKKKKYKVILLKVPPNMSEEEIKKLLEELLGIEKIEEIKIFKNKNGYLLVVIKSAGGSAGG [r6_515_TrROS_Hall]”, the “folding stability dG unfold” value in data set [1] amounted to 10.7 ± 0.753 kJ/mol; in data set [2] it was 21.2 ± 0.669 kJ/mol; in data set [3], 19.6 ± 0.879 kJ/mol.
In the case of “SAGGSAGGSAGNIEIFFDPDGTLRIVFRTPDWVVVIEYKIDPGGNEIEPRDVEVVPPGAISAGGSAGGSAGG [r11_844_TrROS]”, the “folding stability dG unfold” value was found to be 6.94 ± 0.159 kJ/mol in data set [1], 16.9 ± 0.418 kJ/mol in data set [2] and 14.7 ± 1 kJ/mol in data set [3].
The like results for “SAGGSAGMTPVSEAVVPGPNVTTLTTYRDPSSSALITPVTTTPPDGVPVTTTTLDLGSSTVTLSTTSAGGSA [r15_993_JUSTAS]” were, in that order, 4.46 ± 0.222 kJ/mol, 2.44 ± 0.879 kJ/mol and 4.06 ± 0.343 kJ/mol.
The like results for “SAGGSAGLRVRLADGSELSVSPIPDKLRVVVTLPNGARIPIDVEDGELVEIVRDPAVPADFYIEEISAGGSA [r15_709_JUSTAS]” were, in that order, 1.75 ± 0.586 kJ/mol, 5.24 ± 0.18 kJ/mol and 4.43 ± 0.418 kJ/mol.
Consider “SAGGSAKTITVILSPEEVEKLKELGVEIPENVPLAVAEIEILPDGGIKIKVYLFNIPPVKPGELKKSAGGSA [r15_322_TrMRF]”, for which the “folding stability dG unfold” value was determined as 3.48 ± 0.126 kJ/mol in data set [1], 13 ± 0.297 kJ/mol in data set [2] and 10.7 ± 0.502 kJ/mol in data set [3].
The corresponding values for “SAGGSAGGSKKTYTVTEVEVKEVDGKLYLVLKVKNKETGEEKTIVLSLEDLKKLKPGDTVEIKSAGGSAGGS [r12_382_TrROS_Hall]” are 8.79 ± 0.879 kJ/mol, 21.1 ± 0.628 kJ/mol and 20.7 ± 1 kJ/mol.
In the case of “SMEITVYKLPDGTYIIKIYFPSDGKDITIPFSPEKDPEEVAKEVAEKLSKEKKDKPKSITIEDLPEPLPGSA [r9_1205_JUSTAS]”, the “folding stability dG unfold” value in data set [1] came to 4.19 ± 0.368 kJ/mol; in data set [2], 14.1 ± 0.218 kJ/mol; in data set [3] it was 12.5 ± 1.67 kJ/mol.
The like results for “SAGGSAGGSAGGKPVKLEISFDKETNTITIKAVDEENKTVTETTIKVTFLPPPPPPPPKSAGGSAGGSAGGS [r10_331_TrROS_Hall]” were, in that order, 4.58 ± 0.502 kJ/mol, 8.95 ± 1.55 kJ/mol and 8.48 ± 2.01 kJ/mol.
The corresponding values for “SAGGSAGGSAGGKPVVTIEVTVLLEDGTLVKVEIEYDANGRIVSIKVEVVRLEDLPPELLSAGGSAGGSAGG [r11_493_TrROS_Hall]” are 11.3 ± 0.837 kJ/mol, -0.839 ± 1.05 kJ/mol and 7.69 ± 0.92 kJ/mol.
The like results for “SSVQPGQTFEFEFDIPERPGEKLKVKIEIYYDPNSDEYKVKVTFTLYKNDSPSTSVVEMSLEEFEKFLKKSA [r9_71_JUSTAS]” were, in that order, 10.6 ± 0.251 kJ/mol, 24.5 ± 0.544 kJ/mol and 24.8 ± 0.92 kJ/mol.
As to “SSIKIEKLEDDTYLLDIQLENNPDVTIRVRFSLNPDGTPYYEVEVLNPDGSKKRIRFPYGNIEDVLKALASA [r9_310_TrMRF]”, the “folding stability dG unfold” value in data set [1] is 10.3 ± 0.314 kJ/mol; in data set [2] it was 19.3 ± 0.339 kJ/mol; in data set [3], 17.3 ± 0.502 kJ/mol.

The values above are taken from the supplement of paper PMC12764529.
